# In the supplement of paper PMC11438910:
# This is one part of the list. Most of these values are background signal.
# B1: 3S41.3 (protein)
# chain 1: EVQLVESGGGLVQPGGSLRLSCATSGFTFSNYWMYWFRQAPGKGLEWVSTISGSSSNTYYPDSVKGRFTISRDNAKNTLYLQINSLRAEDTAVYYCARRHDHSSGWAFDYWGQGVLVTVSS
# chain 2: EIVMTQSPATLSLSPGERATLSCRASQSVGSNLAWYQQKPGQAPKLLIYDASSRATGIPDRFSGSGSGTDFTLTVSSLEPEDVGVYYCQQYNNWKTFGQGTKVEIK
# Experiments:
# Assay in all cases: fluorescence intensity of antibody binding to polysaccharide-coupled beads; higher = stronger binding
# [1] = biological target: pneumococcal polysaccharide Pn10A
# [2] = biological target: pneumococcal polysaccharide Pn10B
# [3] = biological target: pneumococcal polysaccharide Pn10C
# [4] = biological target: pneumococcal polysaccharide Pn10F
# [5] = biological target: pneumococcal polysaccharide Pn11A
# [6] = biological target: pneumococcal polysaccharide Pn11B
# [7] = biological target: pneumococcal polysaccharide Pn11C
# [8] = biological target: pneumococcal polysaccharide Pn11D
# [9] = biological target: pneumococcal polysaccharide Pn11F
# [10] = biological target: pneumococcal polysaccharide Pn12A
# [11] = biological target: pneumococcal polysaccharide Pn12B
# [12] = biological target: pneumococcal polysaccharide Pn12F
# [13] = antibody concentration 2337.65 ng/mL
# [14] = antibody concentration 12500 ng/mL
# [15] = antibody concentration 0.1 ng/mL
# [16] = antibody concentration 0.534724 ng/mL
# [17] = antibody concentration 2.8593 ng/mL
# [18] = antibody concentration 15.2894 ng/mL
# [19] = antibody concentration 81.7561 ng/mL
# [20] = antibody concentration 437.17 ng/mL
binder,measurement,setting,value
B1,fluorescence intensity,[1]; [13],120 MFI
same,fluorescence intensity,[1]; [14],256 MFI
same,fluorescence intensity,[2]; [15],23.5 MFI
same,fluorescence intensity,[2]; [16],23 MFI
same,fluorescence intensity,[2]; [17],20 MFI
same,fluorescence intensity,[2]; [18],20 MFI
same,fluorescence intensity,[2]; [19],23.5 MFI
same,fluorescence intensity,[2]; [20],24.2 MFI
same,fluorescence intensity,[2]; [13],35.8 MFI
same,fluorescence intensity,[2]; [14],82.8 MFI
same,fluorescence intensity,[3]; [15],14.8 MFI
same,fluorescence intensity,[3]; [16],15.5 MFI
same,fluorescence intensity,[3]; [17],15.2 MFI
same,fluorescence intensity,[3]; [18],14.5 MFI
same,fluorescence intensity,[3]; [19],16.5 MFI
same,fluorescence intensity,[3]; [20],16.2 MFI
same,fluorescence intensity,[3]; [13],26 MFI
same,fluorescence intensity,[3]; [14],58.8 MFI
same,fluorescence intensity,[4]; [15],19.2 MFI
same,fluorescence intensity,[4]; [16],20 MFI
same,fluorescence intensity,[4]; [17],20.5 MFI
same,fluorescence intensity,[4]; [18],19 MFI
same,fluorescence intensity,[4]; [19],20 MFI
same,fluorescence intensity,[4]; [20],20 MFI
same,fluorescence intensity,[4]; [13],22.5 MFI
same,fluorescence intensity,[4]; [14],36.5 MFI
same,fluorescence intensity,[5]; [15],25.5 MFI
same,fluorescence intensity,[5]; [16],25.8 MFI
same,fluorescence intensity,[5]; [17],29 MFI
same,fluorescence intensity,[5]; [18],26.8 MFI
same,fluorescence intensity,[5]; [19],32 MFI
same,fluorescence intensity,[5]; [20],40.2 MFI
same,fluorescence intensity,[5]; [13],52 MFI
same,fluorescence intensity,[5]; [14],85.2 MFI
same,fluorescence intensity,[6]; [15],25 MFI
same,fluorescence intensity,[6]; [16],28 MFI
same,fluorescence intensity,[6]; [17],23.2 MFI
same,fluorescence intensity,[6]; [18],24 MFI
same,fluorescence intensity,[6]; [19],29.5 MFI
same,fluorescence intensity,[6]; [20],31.5 MFI
same,fluorescence intensity,[6]; [13],37.5 MFI
same,fluorescence intensity,[6]; [14],62.8 MFI
same,fluorescence intensity,[7]; [15],21 MFI
same,fluorescence intensity,[7]; [16],20 MFI
same,fluorescence intensity,[7]; [17],20 MFI
same,fluorescence intensity,[7]; [18],20.5 MFI
same,fluorescence intensity,[7]; [19],22.8 MFI
same,fluorescence intensity,[7]; [20],49.5 MFI
same,fluorescence intensity,[7]; [13],354 MFI
same,fluorescence intensity,[7]; [14],1250 MFI
same,fluorescence intensity,[8]; [15],23.5 MFI
same,fluorescence intensity,[8]; [16],21.5 MFI
same,fluorescence intensity,[8]; [17],20 MFI
same,fluorescence intensity,[8]; [18],22.5 MFI
same,fluorescence intensity,[8]; [19],23.5 MFI
same,fluorescence intensity,[8]; [20],32.5 MFI
same,fluorescence intensity,[8]; [13],154 MFI
same,fluorescence intensity,[8]; [14],480 MFI
same,fluorescence intensity,[9]; [15],14 MFI
same,fluorescence intensity,[9]; [16],13 MFI
same,fluorescence intensity,[9]; [17],13.8 MFI
same,fluorescence intensity,[9]; [18],12.5 MFI
same,fluorescence intensity,[9]; [19],14.2 MFI
same,fluorescence intensity,[9]; [20],16.5 MFI
same,fluorescence intensity,[9]; [13],25.8 MFI
same,fluorescence intensity,[9]; [14],67.5 MFI
same,fluorescence intensity,[10]; [15],16 MFI
same,fluorescence intensity,[10]; [16],14 MFI
same,fluorescence intensity,[10]; [17],14.5 MFI
same,fluorescence intensity,[10]; [18],15.5 MFI
same,fluorescence intensity,[10]; [19],16 MFI
same,fluorescence intensity,[10]; [20],20 MFI
same,fluorescence intensity,[10]; [13],35 MFI
same,fluorescence intensity,[10]; [14],132 MFI
same,fluorescence intensity,[11]; [15],15.5 MFI
same,fluorescence intensity,[11]; [16],15 MFI
same,fluorescence intensity,[11]; [17],15.8 MFI
same,fluorescence intensity,[11]; [18],14.5 MFI
same,fluorescence intensity,[11]; [19],15.5 MFI
same,fluorescence intensity,[11]; [20],18.5 MFI
same,fluorescence intensity,[11]; [13],46.5 MFI
same,fluorescence intensity,[11]; [14],152 MFI
same,fluorescence intensity,[12]; [15],19 MFI
same,fluorescence intensity,[12]; [16],18.8 MFI
same,fluorescence intensity,[12]; [17],18.5 MFI
same,fluorescence intensity,[12]; [18],18 MFI
same,fluorescence intensity,[12]; [19],20 MFI
same,fluorescence intensity,[12]; [20],38 MFI
same,fluorescence intensity,[12]; [13],193 MFI
same,fluorescence intensity,[12]; [14],514 MFI

# Random excerpt: seven records from the list, in no set order.
binder,measurement,setting,value
B1,fluorescence intensity,[8]; [14],480 MFI
same,fluorescence intensity,[11]; [19],15.5 MFI
same,fluorescence intensity,[10]; [17],14.5 MFI
same,fluorescence intensity,[3]; [17],15.2 MFI
same,fluorescence intensity,[4]; [14],36.5 MFI
same,fluorescence intensity,[5]; [14],85.2 MFI
same,fluorescence intensity,[10]; [14],132 MFI
